The nature of the data set: Body weight and serum free fatty acids of treated mice. As to conditions: regular chow diet mice, recombinant aP2 100 μg twice a day for two weeks. Format: in vivo.

B1: recombinant aP2: Recombinant aP2 with 6×His tag produced in E. coli, purified, endotoxin removed (protein)
chain: CDAFVGTWKLVSSENFDDYMKEVGVGFATRKVAGMAKPNMIISVNGDLVTIRSESTFKNTEISFKLGVEFDEITADDRKVKSIITLDGGALVQVQKWDGKSTTIKRKRDGDKLVVECVMKGVTSTRVYERA
B1: the body weight result was “did not alter body weight” and the “serum free fatty acid levels” value is given as “did not alter”.

Values taken from patent publication US10882901B2, “Methods of treating diabetes by an adipocyte protein 2 specific antibody” (President and Fellows of Harvard College, priority 2009, dated 2021).
